# The campaign covered roughly 410,000 compounds. About 18,000 (4.4%) were called active. The inconclusive results got no clear call from the source; some entries with a clear call stand among them for comparison. Rule as the data show it: active = activity change below about -60%; inconclusive = no clear call, values can overlap the other calls; inactive = above about -39%.
# Test: qHTS Assay for inhibitors of the human cytomegalovirus (HCMV)
# Conditions: HFF cells, HCMV-luciferase reporter, 72 h; at 57.5 µM; hits give low values
# Outline: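 After 16 h attachment at 37C, HFF cells received test compound and HCMV-luciferase (1 PFU/cell); reporter luminescence read 72 h later, data normalized against buffer-only and known inhibitor Salinomycin.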
# % is scaled to controls: 0 for no effect and ±100 for the full control effect.
row,SMILES,"activity change, negative = inhibition"
1,O=C(N/N=C/c1ccc(C(F)(F)F)cc1)c1ccc(O)cc1,inconclusive: -42.4%
2,O=C(NCCNc1cc(Cl)ccc1[N+](=O)[O-])c1ccco1,active: -74.9%
3,COc1cc(/C=N/N2C(C)CCCC2C)cc(Br)c1O (stereo not given),inactive: -29.2%
4,Cc1ccc(C2CC(c3ccccc3)=NN2c2ccc(S(N)(=O)=O)cc2)cc1 (stereo not given),inactive: -5.35%
5,O=C(Nc1ccccc1C(=O)N1CCCC1)c1ccc(Cl)cc1Cl,inconclusive: -40.2%
6,O=C(NCc1ccc(Cl)cc1)C1CCC(CNc2c(N3CCCC3)c(=O)c2=O)CC1 (stereo not given),inconclusive: -44.8%
7,COc1ccccc1NC(=O)c1cc(-c2ccc(C)o2)nc2ccccc12,active: -71.5%
8,COc1cc(C(=O)OCC#N)ccc1OCc1c(C)noc1C,inactive: 0%
9,Cn1c(SC/C=C/c2ccccc2)nnc1-c1cccs1,inconclusive: -41.8%
10,CCn1cc(S(=O)(=O)CC(=O)Nc2cccc(C)c2)c2ccccc21,inactive: -1.85%
11,COc1ccccc1NS(=O)(=O)c1cccc2nsnc12,inconclusive: 0%
12,CN(Cc1ccc(Cl)s1)C(=O)CNC(=O)CNC(=O)c1ccc(Cl)cc1Cl,inconclusive: -51.3%
13,CCOc1c(Cl)cc(Cl)cc1CNCCSc1nnnn1C,inactive: -1.94%
14,Cc1cc(NC(=O)c2ccccc2C)n(-c2cccc(F)c2)n1,inconclusive: -46.8%
15,O=C(CN1C2=NCCN2c2ccccc21)C12CC3CC(CC(C3)C1)C2,inconclusive: -42.6%
16,Cn1c(=O)c2c(nc(NCc3ccco3)n2C)n(C)c1=O,inactive: 16%
17,COc1ccc2c(Cl)c(C(=O)NN)sc2c1,inconclusive: -56.1%
18,CSc1nnc(C(C)(C)C)c(=O)n1/N=C/c1ccc(C(C)C)cc1,active: -63.3%
19,CCc1nc2ccccc2c(C(=O)OCC(=O)Nc2cccc(S(=O)(=O)N3CCOCC3)c2)c1C,inactive: -31.7%
20,COCCNc1ncnc2c1ncn2[C@H]1CN(Cc2ccc(-c3ccccc3)cc2)C[C@@H](CO)O1,inconclusive: -52.8%
21,O=C(Oc1cccc2cccnc12)c1ccc(N2C(=O)C3C4CCC(C4)C3C2=O)cc1 (stereo not given),inconclusive: -55.1%
22,CNCc1ccccc1Sc1cccc2ccccc12,inconclusive: -46.2%
23,NS(=O)(=O)c1cccc(NC(=O)c2ccc(NS(=O)(=O)c3cccc([N+](=O)[O-])c3)cc2)c1,active: -75.4%
24,CN(C(=O)c1ccc2c(c1)N(Cc1cccc(Cl)c1)C(=O)c1ccccc1S2=O)C1CCCCC1 (stereo not given),active: -63.4%
25,CCCCn1c(=O)c(C(=O)Nc2cccc(C)c2)c(O)c2ccccc21,inconclusive: -53.7%

# Part of the list above, reformatted.
row | SMILES | activity change, negative = inhibition
6 | O=C(NCc1ccc(Cl)cc1)C1CCC(CNc2c(N3CCCC3)c(=O)c2=O)CC1 (stereo not given) | inconclusive: -44.8%
11 | COc1ccccc1NS(=O)(=O)c1cccc2nsnc12 | inconclusive: 0%
18 | CSc1nnc(C(C)(C)C)c(=O)n1/N=C/c1ccc(C(C)C)cc1 | active: -63.3%
21 | O=C(Oc1cccc2cccnc12)c1ccc(N2C(=O)C3C4CCC(C4)C3C2=O)cc1 (stereo not given) | inconclusive: -55.1%
24 | CN(C(=O)c1ccc2c(c1)N(Cc1cccc(Cl)c1)C(=O)c1ccccc1S2=O)C1CCCCC1 (stereo not given) | active: -63.4%
25 | CCCCn1c(=O)c(C(=O)Nc2cccc(C)c2)c(O)c2ccccc21 | inconclusive: -53.7%
